# Measured values as given in PMC9051106, “Structural insights into TRPV2 activation by small molecules” (Nature Communications, 2022).
# Results are given in words; binding and its absence hold for the method and conditions named. Some results given as binding are weak or reduced against the parent protein; the word gives no strength.
# T1: Transient receptor potential vanilloid 2 (TRPV2), full-length wildtype rat, in lipid nanodiscs (rat), Q9WUD2
# T1 chain: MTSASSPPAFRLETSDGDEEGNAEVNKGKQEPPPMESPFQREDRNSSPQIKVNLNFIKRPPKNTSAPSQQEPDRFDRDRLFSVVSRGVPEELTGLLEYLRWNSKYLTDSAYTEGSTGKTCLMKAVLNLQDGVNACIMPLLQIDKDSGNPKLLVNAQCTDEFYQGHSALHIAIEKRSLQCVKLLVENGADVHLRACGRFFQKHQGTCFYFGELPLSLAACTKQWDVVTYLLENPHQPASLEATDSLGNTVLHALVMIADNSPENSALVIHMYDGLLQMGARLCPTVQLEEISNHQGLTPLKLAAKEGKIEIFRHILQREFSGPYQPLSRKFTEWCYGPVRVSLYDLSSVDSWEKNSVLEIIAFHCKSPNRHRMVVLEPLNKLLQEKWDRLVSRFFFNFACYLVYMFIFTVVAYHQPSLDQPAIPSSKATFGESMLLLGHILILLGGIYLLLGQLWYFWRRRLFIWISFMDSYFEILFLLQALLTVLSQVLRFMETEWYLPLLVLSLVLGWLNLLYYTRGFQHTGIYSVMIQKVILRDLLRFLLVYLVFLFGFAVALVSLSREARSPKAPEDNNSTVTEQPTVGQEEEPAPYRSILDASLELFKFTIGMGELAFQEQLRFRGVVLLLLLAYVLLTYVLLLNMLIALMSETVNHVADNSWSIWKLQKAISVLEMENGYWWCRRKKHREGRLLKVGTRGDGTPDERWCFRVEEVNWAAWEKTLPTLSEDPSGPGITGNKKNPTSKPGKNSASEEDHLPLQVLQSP
# B1: Transient receptor potential vanilloid 2 (TRPV2), full-length wildtype rat, in lipid nanodiscs, Q9WUD2 1-761 (protein)
# chain: T1 chain
# Target: T1, Transient receptor potential vanilloid …
# Assay: cryo-EM structure; rat TRPV2 in lipid nanodiscs (MSP2N2, soy polar lipids), incubated with 1 mM 2-APB for 5 min, or with 1 mM 2-APB and 30 uM CBD for 30 min, before vitrification; refined with C4 symmetry; both purified
# Conditions: remark: other sources report otherwise
binder,measurement,value
B1,binding,binds
